Construct, isoform or probe ends are uncertain for at least one entry. Negatives hold for the conditions tested. Weaker means in comparison with the reference protein, sequence or condition of that experiment.
Tested on: OxyR (Streptomyces gilvosporeus F607)
Assay: EMSA
Details: EMSA: 20 mM Tris pH 7.5, 60 mM KCl, 2 mM EDTA, 0.5 mM DTT, 4% Ficoll, 1 ug poly(dI-dC), 20 uL, 15-25 C, 30 min; recombinant protein; protein details: His6 (pET-15b); label: * at 5' end (biotin)

Sequence: ACCGCCCTTGCGGATGTTTGGTCGAGCCACTGGCGGCTCCTTGCCGTCGCCTGCCGTCGTGTTCCGGACCCCTTGTCGGAATC (double strand) [psgnMR-2-M3]
- binding result: binds more weakly

Sequence: ACCGCCCTTGCGGATGTTTGGTCGAGCCACTGGTCATTCCTTGCCGTCGCCTCAAGTCGTGTTCCGGACCCCTTGTCGGAATC (double strand) [psgnMR-2-M7]
- binding result: binds more weakly

Sequence: ACCGCCCTTGCGGATGTTTGGTCGAGCCACTGGTCATTCCTTGCCGTCGCCTGCCGTCGTGTTCCGGACCCCTTGTCGGAATC (double strand) [psgnMR-2-M5]
- binding result: binds more weakly

Sequence: ACCGCCCTTGCGGATGTTTGGTCGAGCCACTGGTCATTCCTTGCCGTCGCCTCAAGTCGTGTTCCTCGCACCTTGTCGGAATC (double strand) [psgnMR-2-M6]
- binding result: no binding

Sequence: ACCGCCCTTGCGGGGTCCTGGTCGAGCCACTGGTACTTCCTTGCCGTCGCCTGCCGTCGTGTTCCGGACCCCTTGTCGGAATC (double strand) [psgnMR-2-M1]
- binding result: binds more weakly

Sequence: ACCGCCCTTGCGGGGTCCTGGTCGAGCCACTGGCGGCTCCTTGCCGTCGCCTGCCGTCGTGTTCCGGACCCCTTGTCGGAATC (double strand) [psgnMR-2 wild-type oligo probe]
- binding result: binds

Sequence: ACCGCCCTTGCGGGGTCCTGGTCGAGCCACTGGTACTTCCTTGCCGTCGCCTCAGCTCGTGTTCCGGACCCCTTGTCGGAATC (double strand) [psgnMR-2-M2]
- binding result: binds more weakly

Sequence: ACCGCCCTTGCGGATGTTTGGTCGAGCCACTGGCGGCTCCTTGCCGTCGCCTGCCGTCGTGTTCCTCGCACCTTGTCGGAATC (double strand) [psgnMR-2-M4]
- binding result: no binding

From PMC10580950
